# No constants are given. Whether binding was seen depends on the method and setting. Binding seen in cells or lysates may run through a third protein. These calls come from enrichment with a bait or labelling near it, and not all partners need be listed. Sequences can lack the tags named with a protein.
# Sequences of proteins named here, by UniProt entry; tags and fusion partners are left off.
# UniProt Q8R4B8: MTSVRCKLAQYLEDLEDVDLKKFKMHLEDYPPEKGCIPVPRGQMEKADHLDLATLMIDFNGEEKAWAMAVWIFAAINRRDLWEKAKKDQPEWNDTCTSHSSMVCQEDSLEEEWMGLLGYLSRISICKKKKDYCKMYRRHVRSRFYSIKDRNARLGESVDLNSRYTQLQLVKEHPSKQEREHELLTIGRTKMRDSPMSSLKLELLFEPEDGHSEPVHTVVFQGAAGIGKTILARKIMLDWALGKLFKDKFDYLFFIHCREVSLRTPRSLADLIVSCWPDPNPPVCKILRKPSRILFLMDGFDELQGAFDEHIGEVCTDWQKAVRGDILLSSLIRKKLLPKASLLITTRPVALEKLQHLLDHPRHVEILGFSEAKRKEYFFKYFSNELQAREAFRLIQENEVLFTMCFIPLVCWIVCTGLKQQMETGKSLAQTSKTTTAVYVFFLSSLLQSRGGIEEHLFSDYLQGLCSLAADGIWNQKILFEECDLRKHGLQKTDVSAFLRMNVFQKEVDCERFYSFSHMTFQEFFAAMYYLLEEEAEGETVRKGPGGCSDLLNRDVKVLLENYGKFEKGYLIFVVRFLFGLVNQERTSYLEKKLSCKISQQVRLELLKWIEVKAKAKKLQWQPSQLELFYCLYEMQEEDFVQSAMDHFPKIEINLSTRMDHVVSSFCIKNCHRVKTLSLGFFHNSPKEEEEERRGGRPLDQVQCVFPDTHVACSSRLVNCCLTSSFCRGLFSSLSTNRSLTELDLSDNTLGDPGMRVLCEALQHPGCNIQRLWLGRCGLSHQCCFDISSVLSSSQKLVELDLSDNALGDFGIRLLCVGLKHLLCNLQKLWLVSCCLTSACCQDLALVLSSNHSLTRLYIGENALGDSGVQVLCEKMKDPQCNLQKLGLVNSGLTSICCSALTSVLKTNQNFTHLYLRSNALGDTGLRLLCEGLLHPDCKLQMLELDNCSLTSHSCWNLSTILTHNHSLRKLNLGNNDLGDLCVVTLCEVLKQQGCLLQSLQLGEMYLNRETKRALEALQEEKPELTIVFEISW
# UniProt P46935: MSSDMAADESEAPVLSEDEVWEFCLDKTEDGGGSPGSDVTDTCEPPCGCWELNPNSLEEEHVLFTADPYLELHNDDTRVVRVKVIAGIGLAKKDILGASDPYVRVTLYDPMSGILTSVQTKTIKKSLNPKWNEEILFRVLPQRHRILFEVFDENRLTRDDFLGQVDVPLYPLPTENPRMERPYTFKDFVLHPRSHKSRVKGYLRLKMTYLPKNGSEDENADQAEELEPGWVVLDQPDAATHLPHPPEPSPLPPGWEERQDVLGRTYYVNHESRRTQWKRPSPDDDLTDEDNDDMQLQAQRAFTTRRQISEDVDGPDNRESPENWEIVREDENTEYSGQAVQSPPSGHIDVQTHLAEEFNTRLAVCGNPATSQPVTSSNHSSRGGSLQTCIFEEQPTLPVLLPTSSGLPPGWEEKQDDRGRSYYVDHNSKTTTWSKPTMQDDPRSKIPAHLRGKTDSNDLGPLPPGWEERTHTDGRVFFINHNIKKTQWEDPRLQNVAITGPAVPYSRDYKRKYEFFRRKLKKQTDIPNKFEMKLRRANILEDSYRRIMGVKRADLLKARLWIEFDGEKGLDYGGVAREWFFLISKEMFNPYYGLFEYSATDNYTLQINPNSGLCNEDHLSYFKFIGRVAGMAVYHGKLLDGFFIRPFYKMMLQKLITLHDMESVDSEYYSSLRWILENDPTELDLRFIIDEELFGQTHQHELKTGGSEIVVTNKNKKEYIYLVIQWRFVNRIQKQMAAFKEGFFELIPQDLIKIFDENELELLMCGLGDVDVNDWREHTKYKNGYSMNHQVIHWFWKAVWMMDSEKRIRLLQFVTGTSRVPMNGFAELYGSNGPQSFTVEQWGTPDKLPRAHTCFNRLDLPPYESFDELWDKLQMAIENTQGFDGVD
# T1: Myc-tagged murine Yod1 (mouse) (UniProt Q8CB27)
# T1 sequence: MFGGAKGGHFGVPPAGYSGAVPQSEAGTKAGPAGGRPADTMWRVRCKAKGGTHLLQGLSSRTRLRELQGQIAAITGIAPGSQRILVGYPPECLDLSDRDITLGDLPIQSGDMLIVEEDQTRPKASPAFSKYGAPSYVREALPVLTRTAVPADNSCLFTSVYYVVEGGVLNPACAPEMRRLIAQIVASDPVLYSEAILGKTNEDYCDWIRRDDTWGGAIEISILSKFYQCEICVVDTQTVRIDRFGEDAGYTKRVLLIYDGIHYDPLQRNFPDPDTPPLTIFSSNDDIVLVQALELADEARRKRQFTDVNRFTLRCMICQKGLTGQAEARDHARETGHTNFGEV
# Target: T1, Myc-tagged murine Yod1 (mouse)
# Assay: affinity purification with mass spectrometry; Myc-tagged murine Yod1 overexpressed in mouse PMs, immunoprecipitation and mass spectrometry
row,binding,Molecule
1,binds,"NLR-family pyrin domain-containing-3 (NLRP3), endogenous mouse (from UniProt Q8R4B8 1-1033)"
2,binds,"neural precursor cell expressed developmentally downregulated protein 4 (NEDD4), endogenous mouse (from UniProt P46935 1-887)"
3,binds,"TRIM33, endogenous mouse (protein, UniProt Q99PP7 1-1142) MAENKGGGEAESGGGGSGSAPVTAGAAGPTAQEAEPPLAAVLVEEEEEEGGRAGAEGGAAGPDDGGVAAASSSSAPAASVPAASVGSAVPGGAASTPAPAAAPAPAPAPAPAPAPAPAPAPAPGSSSGPPLGPPASLLDTCAVCQQSLQSRREAEPKLLPCLHSFCLRCLPEPERQLSVPIPGGSNGDVQQVGVIRCPVCRQECRQIDLVDNYFVKDTSEAPSSSDEKSEQVCTSCEDNASAVGFCVECGEWLCKTCIEAHQRVKFTKDHLIRKKEDVSESVGTSGQRPVFCPVHKQEQLKLFCETCDRLTCRDCQLLEHKEHRYQFLEEAFQNQKGAIENLLAKLLEKKNYVHFAATQVQNRIKEVNETNKRVEQEIKVAIFTLINEINKKGKSLLQQLENVTKERQMKLLQQQNDITGLSRQVKHVMNFTNWAIASGSSTALLYSKRLITFQLRHILKARCDPVPAANGAIRFHCDPTFWAKNVVNLGNLVIESKPAPGYTPNVVVGQVPPGTNHISKTPGQINLAQLRLQHMQQQVYAQKHQQLQQMRLQQPPAPIPTTTATTQQHPRQAAPQMLQQQPPRLISVQTMQRGNMNCGAFQAHQMRLAQNAARIPGIPRHSAPQYSMMQPHLQRQHSNPGHAGPFPVVSAHNPINPTSPTTATMANANRGPTSPSVTAIELIPSVTNPENLPSLPDIPPIQLEDAGSSSLDNLLSRYISGSHLPPQPTSTMNPSPGPSALSPGSSGLSNSHTPVRPPSTSSTGSRGSCGSSGRTAEKSAHSFKSDQVKVKQEPGTEEEICSFSGAVKQEKTEDGRRSACMLSSPESSLTPPLSTNLHLESELDTLTGLENHVKTEPTDISESCKQSGLSNLVNGKSPIRNLMHRSARIGGDGNSKDDDPNEDWCAVCQNGGDLLCCEKCPKVFHLTCHVPTLLSFPSGDWICTFCRDIGKPEVEYDCDNMQHSKKGKTAQGLSPVDQRKCERLLLYLYCHELSIEFQEPVPVSIPNYYKIIKKPMDLSTVKKKLQKKHSQHYQIPDDFVADVRLIFKNCERFNEMMKVVQVYADTQEINLKGDSEVAKAGKAVALYFEDKLSEIYSDRTFTPLPEFEQDEDDGEVTEDSDEDFIQPRRKRLKSDERPVHIK"

# From article PMC11126606
